# Screening data, single-dose tests

Chains of the proteins cited; added tags and fusions are not shown. Residues count along the entry.
UniProt A4I591, 1-473: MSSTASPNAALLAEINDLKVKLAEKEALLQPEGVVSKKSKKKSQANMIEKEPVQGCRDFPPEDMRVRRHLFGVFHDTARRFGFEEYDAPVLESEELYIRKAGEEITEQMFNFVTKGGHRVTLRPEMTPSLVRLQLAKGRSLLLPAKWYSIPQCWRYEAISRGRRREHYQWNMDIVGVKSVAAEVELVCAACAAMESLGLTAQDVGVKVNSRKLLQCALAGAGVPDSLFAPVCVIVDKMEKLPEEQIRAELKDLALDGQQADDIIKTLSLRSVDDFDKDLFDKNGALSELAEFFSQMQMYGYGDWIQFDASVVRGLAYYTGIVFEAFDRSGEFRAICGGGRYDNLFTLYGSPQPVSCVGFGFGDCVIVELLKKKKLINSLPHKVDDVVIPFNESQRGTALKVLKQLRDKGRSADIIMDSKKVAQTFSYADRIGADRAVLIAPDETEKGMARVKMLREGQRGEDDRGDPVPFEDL

Measurements from “University of Dundee, Small-Polar-MMV Screening Library” (2021), ChEMBL document CHEMBL3988442.

Toxoplasma: 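Assay of Toxoplasma gondii numbers, read through their beta-galactosidase reporter with a colour substrate. Compounds at 10 µM. Higher reads as fewer parasites (inferred from which compounds were picked for retests). Size under these conditions: about 67,000 compounds, about 260 of them at 50% or above in at least one test.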
LiHisRS: 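Histidine-tRNA ligase, Leishmania infantum (UniProt A4I591). Enzyme assay of histidyl-tRNA synthetase; the read-out is not stated. Compounds at 30 µM. The record gives no direction; compounds that gave an IC50 in retests scored well above the rest, so higher reads as stronger inhibition. The assay is labelled LdHisRS but filed under L. infantum. About 69,000 compounds were tested under these conditions; 0.6% (about 410) showed 50% or more at least once.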

Values are the deposited “Percent Effect”, in %.
The controls that fix the scale are not given in the record; negative values are as filed.
This is an unselected part of the compounds tested.
A dash means the value is not listed here; it may have been measured.

compound,Toxoplasma,LiHisRS
COc1cccc(CC(=O)NCC(Cc2ccc(F)cc2)C(N)=O)c1 (stereo not shown),-6.121,20.22
O=C(O)C(F)(F)F.[H][C@]12CCN(C(=O)c3ccc4[nH]ccc4c3)C[C@@]1([H])OCCN(CC1CC1)C2,-19.47,-
CCOc1ccc(Cl)c(C(=O)N2CCN(c3cnccn3)CC2)n1,6.882,-93.15
CN(C[C@H]1CN2CC[C@H]1C[C@@H]2CNC(=O)c1ccco1)c1ccccc1,-,22.97
CCN(C)S(=O)(=O)NCC1CCN(Cc2ccccc2C)CC1,-15.74,13.92
CNc1ncc(CN(C)C(=O)CCc2cc3n(n2)CCCNC3)cn1,-8.308,-25.4
CCn1ccc2ccnc(CC3CN(C(=O)Cn4ccnc4C)C3)c21.O=CO,11.11,-
CC(=O)Nc1ccc(CN2CCCC(c3cc4ncccc4[nH]3)C2)cc1 (stereo not shown),11.3,12.95
CC(C)C(C(=O)N1CCCN(Cc2cscn2)CC1)n1cncn1 (stereo not shown),12.32,20
CSCc1cc(F)ccc1CNC(=O)N1CCCC1,-2.247,18.57
Cc1cccc(CN2CC[C@@H]3O[C@@H](C(=O)N4CCN(C)CC4)C[C@@H]32)c1,-,19.23
N[C@H]1CN(S(=O)(=O)N2CCCC2)C[C@@H]1c1ccccc1,-4.933,8.065
Cc1cc(CN(C)C(=O)c2ccc(F)cc2F)no1,1.01,13.21
CC(C(=O)NCCOc1ccc2c(c1)OCO2)n1cncn1 (stereo not shown),-,16.85
COCCN1CCN(CC(=O)NC2(C#N)CCCC2)CC1,1.354,10
Cn1cccc1C(=O)NCc1cnc2n1CCN(CC1CC1)C2.O=C(O)C(F)(F)F,-4.789,-
CN1CCCN(c2nccc(-c3cc(C(=O)O)ccn3)n2)CC1,-7.18,-2.083
COc1ccccc1CNC(C)c1cnc2cc(C)nn2c1C (stereo not shown),12.44,12.07
O=C1CO[C@@H]2CN(S(=O)(=O)c3ccccc3)C[C@H]2N1CC1CC1,-,13.21
C[C@@H]1CN(c2nc3c(cc2C(N)=O)CCC3)C[C@]1(C)O,5.446,8.046
COCc1nnc(-c2cccc(C(=O)N(C(C)C)C3CCC3)c2)o1,12.87,8.73
CC(C)N1CCN(C(=O)C(C)n2cncn2)CC1 (stereo not shown),-10.43,10.53
[H][C@@]12CS(=O)(=O)C[C@]1([H])N(Cc1ccc(F)c(C)c1)CCN2CCOC,5.331,-
CC(=O)c1ccc(OCC(C)O)cc1O (stereo not shown),-7.882,16.49
Cc1nc(O)cc(CN2C[C@H](NC(=O)C3CCC3)[C@@H](C3CC3)C2)n1,-5.306,3.922
[H][C@]12CC[C@]([H])(CN(c3ncccc3C(N)=O)C1)N(Cc1ccccn1)C2=O,9.719,-
Cc1cccc(CN2CCN(C(=O)c3cc(C4CC4)[nH]n3)CC2)c1,-23.64,8.929
O=C(O)c1cccc(CN2CCCC(c3ccn[nH]3)C2)c1 (stereo not shown),1.832,7.194
COCCN1CCC2(CC1)CC(Nc1ccc(C)nn1)CO2 (stereo not shown),-,10.26
Cc1cccc(OCCNC(=O)CN2CCCC2c2noc(C)n2)c1 (stereo not shown),6.469,7.339
COc1cc(OC)c2nc(NCCN3CCNC3=O)cc(C)c2c1,-12.75,14.75
Cc1c(C)n(-c2ccccn2)c2nc3c(c(N)c12)CCCC3,-5.021,17.48
CCc1cn[nH]c1C1CCN(c2cc(C)c3cccc(OC)c3n2)CC1,-5.743,30
Cc1oncc1C(=O)N1CC[C@H]2C[C@H](c3ccncn3)O[C@@H]2C1,-,7.273
Cc1ccccc1CC1(C(=O)O)CCCN(c2ncccn2)C1 (stereo not shown),-4.418,13.11
Cc1ncc2c(n1)CN(CC(=O)Nc1cccnc1)CC2,22.27,13.39
CC1CN(CCOc2ccccc2C#N)CCN1Cc1nccn1C (stereo not shown),0.6142,9.649
CN(C)CCNC(=O)c1sccc1N(C)S(=O)(=O)c1ccc(Cl)cc1,-9.175,10
CCOc1cc(C)nc(N2CCN(C(=O)Cn3cc(C)cn3)CC2)n1,-8.009,14.55
CC(=O)NCc1cc2n(n1)CCN(Cc1cccc(CCN)c1)C2,-14.18,18.07
CC(O)CN1CCN(C(=O)c2cc3ccccc3[nH]c2=O)CC1 (stereo not shown),-2.262,17.14
O=C(O)C(F)(F)F.[H][C@@]12CCN(C3CCOCC3)C[C@]1([H])[C@H](C(=O)NC)CCO2,0.7887,-
CS(=O)(=O)N1C[C@@H]2CC[C@H](C1)N(C(=O)CCc1ccsc1)C2,-,15.62
O=C(O)C(F)(F)F.O=C(O)C(F)(F)F.[H][C@@]12CCN(Cc3ccoc3)C[C@@]1([H])[C@H](C(=O)NCc1ccccn1)CCO2,1.775,-
O=C(c1ccc(S(=O)(=O)NCC(F)F)cc1)N1C[C@H]2CNC[C@H]2C1,-,12.9
CN(Cc1ccco1)C1CCC12CCN(C(=O)c1ccco1)CC2.O=C(O)C(F)(F)F (stereo not shown),-21.11,-
CN1C(=O)C2(CCCN(C(=O)c3ccc(=O)n(C)n3)C2)c2ccccc21 (stereo not shown),14.29,9.783
CCC(C)NC(=O)c1coc(COc2cccc(F)c2)n1 (stereo not shown),-2.259,19.74
CCc1ocnc1C(=O)N1CCC(C2CCN(c3ncccn3)CC2)C1 (stereo not shown),2.052,8.602
CCNc1ncc(C(=O)NCc2cccc(OC(F)(F)F)c2)cn1,-14.61,23.38
Cc1ccc(N2CCN(C(=O)CCc3n[nH]c(C)n3)CC2=O)cc1,7.743,11.48
COCCOc1ccnc(-c2noc([C@@H]3CCCN3C(C)C)n2)c1,-2.76,14.86
c1ccc(CCN2CCc3c(ncn3C3CC3)C2)nc1,5.085,7.08
O=C(O)C(F)(F)F.[H][C@@]12CO[C@@H](CNC(=O)N(C)C)[C@]1([H])CCN(Cc1cccc(F)c1)C2,-5.131,-
COCCNC(=O)NCC(C)c1ccccc1OC (stereo not shown),-8.351,14
COc1ccccc1C1CC(=O)Nc2nc(N3CCCCC3)sc21 (stereo not shown),-6.554,117.5
CC(C)c1nccn1-c1cncc(C2CCCN2Cc2cccnc2)n1 (stereo not shown),-,4.225
N#Cc1ccccc1CNC(C(=O)N1CCOCC1)c1ccccc1 (stereo not shown),-1.326,12.61
O=C(CN1CCS(=O)(=O)CC1)Nc1ccc(N2CCCC2)nc1,-12.28,21.92
O=C(NC1CCCC1)c1cc(C2CCCNC2)n[nH]1 (stereo not shown),-,11.35
O=C(CSC1CCc2ccccc2NC1=O)NCc1cccs1 (stereo not shown),-17.11,28.57
O=S1(=O)NC(C2CCCN(S(=O)(=O)N3CCCC3)C2)=Nc2ccccc21 (stereo not shown),9.371,9.79
CN1C(=O)CC(c2cnn(C)c2)C12CCN(C(=O)c1ccncc1)CC2 (stereo not shown),-,22.94
Cc1ccoc1-c1nnc(CNCCn2cccn2)o1,-,21.35
CC(=O)N1[C@H](CN(C)C)C[C@@H]2CN(C(=O)c3cncc(C)c3)CC[C@@H]21,-,17.31
CN(c1c(F)cccc1F)S(=O)(=O)c1cc2c(c(C(=O)O)c1)OCCO2,-3.403,13.19
O=C(C1CC(c2ccccc2)=NO1)N1CCc2ccccc21 (stereo not shown),-27.84,10.62
CCc1nc(COc2ccc(N(C)C(C)=O)cc2)no1,-6.795,1.724
COCCC(=O)N1CC2(CCN(Cc3ccccc3Cl)CC2)C1,-,23
O=C(NC1CCN(Cc2ccc(F)cc2)CC1)c1ccc2c(c1)CCC2,8.808,15.69
CNC(=O)CN1CCC12CCN(C(=O)Cc1ccccc1)C2 (stereo not shown),-,10.09
O=C(CCC1CCCC1)N1CCC(c2cc3ncccc3c(O)n2)CC1,-4.807,0.6897
Cc1noc(CN(C)C(=O)CCn2cnc3ccccc32)n1,-1.37,10.83
Cc1ccccc1C(C)NC(=O)c1ccc(=O)n(C)c1 (stereo not shown),-2.141,1.333

Repeated from the top, 5 entries:

{"compound": "COc1cccc(CC(=O)NCC(Cc2ccc(F)cc2)C(N)=O)c1", "stereo": "stereo not shown", "Toxoplasma": -6.121, "LiHisRS": 20.22}
{"compound": "O=C(O)C(F)(F)F.[H][C@]12CCN(C(=O)c3ccc4[nH]ccc4c3)C[C@@]1([H])OCCN(CC1CC1)C2", "Toxoplasma": -19.47}
{"compound": "CCOc1ccc(Cl)c(C(=O)N2CCN(c3cnccn3)CC2)n1", "Toxoplasma": 6.882, "LiHisRS": -93.15}
{"compound": "CN(C[C@H]1CN2CC[C@H]1C[C@@H]2CNC(=O)c1ccco1)c1ccccc1", "LiHisRS": 22.97}
{"compound": "CCN(C)S(=O)(=O)NCC1CCN(Cc2ccccc2C)CC1", "Toxoplasma": -15.74, "LiHisRS": 13.92}